Measured values taken from PMC5683061.
Results are given in words; binding and its absence hold for the method and conditions named. Binding calls can cover weak binding; strength is not graded here.

Biological target: T1, Ferredoxin:NADP+ oxidoreductase (FNR), C. reinhardtii, recombinant soluble (C. reinhardtii) (UniProt P53991)
T1 sequence: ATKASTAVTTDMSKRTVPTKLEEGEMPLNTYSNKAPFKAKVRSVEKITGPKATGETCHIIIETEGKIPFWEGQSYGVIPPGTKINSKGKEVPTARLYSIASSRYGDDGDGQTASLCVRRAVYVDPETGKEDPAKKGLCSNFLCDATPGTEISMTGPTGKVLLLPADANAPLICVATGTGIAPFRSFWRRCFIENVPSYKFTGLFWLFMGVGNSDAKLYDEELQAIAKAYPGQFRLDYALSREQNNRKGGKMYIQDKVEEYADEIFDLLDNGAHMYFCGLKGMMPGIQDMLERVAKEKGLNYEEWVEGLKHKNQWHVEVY
Assay: NMR titration; 2D 1H-15N HSQC chemical shift perturbation of [15N]-FDX (50 µM) mixed with FNR (150 µM), molar ratio 1:3, without or with 150 µM of the other, non-labelled FDX; 25 mM MES-NaOH pH 6.5, 50 mM NaCl, 0.04% β-DDM, 10% D2O, 298 K; both purified

binding	Substance
binds	Ferredoxin 2 (FDX2), C. reinhardtii
binds	Ferredoxin 1 (FDX1), C. reinhardtii
